Record: PubChem BioAssay AID1259405 (NCATS, 2018)
Screen: 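Silenced genes that increase secreted GFP made by CHO cells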 (primary screen). Cells: Chinese hamster CHO-K1 ovary cells with stable secreted eGFP expression. Knock-down reagent: single siRNA against mouse genes, 0.8 pmol siRNA per well (2 µl of 400 nM stock). Time to read-out: 3 days. Detection: 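Per-well intracellular GFP measured by laser scanning cytometry, plus viability from ATP luminescence, each relative to plate median of non-targeting control wells, in %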. Direction: GFP, % of control: higher = more GFP per well, higher productivity; viability (ATP), % of control: higher = more viable cells (more ATP). Active means: 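Called active when intracellular GFP, relative to negative control, is at or above 120%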.
This is one part, drawn at random, of about 50,000 reagents tested. About 4,000 of them (8%) were called active. 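Mouse siRNA library applied to hamster cells; one well for each siRNA.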 A number with no mark means an inactive call. The numbers tell different reagents against one gene apart. No sequences are given here.

With Grin3b #1, how do the results read?
GFP, % of control: 78.3; viability (ATP), % of control: 83.9

What is on record for Grin3b #2?
GFP, % of control: 53.9; viability (ATP), % of control: 63.1

For Grin3b #3, what was measured?
GFP, % of control: 124 (active); viability (ATP), % of control: 87.7

How did the screen score Itga5 #1?
GFP, % of control: 69.2; viability (ATP), % of control: 71.3

Which result is listed for Itga5 #2?
GFP, % of control: 113; viability (ATP), % of control: 92.5

What is on record for Tnpo2 #1?
GFP, % of control: 102; viability (ATP), % of control: 80

Which result is listed for Tnpo2 #2?
GFP, % of control: 81.5; viability (ATP), % of control: 65.8

What did the screen give for Tnpo2 #3?
GFP, % of control: 76.2; viability (ATP), % of control: 57.6

With Ccdc162 #1, what was measured?
GFP, % of control: 66.1; viability (ATP), % of control: 52.5

For Ccdc162 #2, what does the deposit list?
GFP, % of control: 80.5; viability (ATP), % of control: 85.8

Which result is listed for Ccdc162 #3?
GFP, % of control: 99.9; viability (ATP), % of control: 101

For Farp1 #1, what was measured?
GFP, % of control: 73.1; viability (ATP), % of control: 73.6

What is on record for Farp1 #2?
GFP, % of control: 84.7; viability (ATP), % of control: 77

How did the screen score Farp1 #3?
GFP, % of control: 53.8; viability (ATP), % of control: 42

For Slc27a5 #1, what was measured?
GFP, % of control: 101; viability (ATP), % of control: 81.5

What did the screen give for Slc27a5 #2?
GFP, % of control: 86.1; viability (ATP), % of control: 80.2

With Slc27a5 #3, how do the results read?
GFP, % of control: 111; viability (ATP), % of control: 117
